This is one part of the list.
compound: Cc1cn(-c2cc(NC(=O)c3ccc(C)c(Nc4nccc(-c5cccnc5)n4)c3)cc(C(F)(F)F)c2)cn1 [nilotinib]; experiment: log2 fold change, soluble protein after heating vs DMSO (PISA); higher = thermal stabilisation; K562 cells, 10 uM, 30 min; active = over 0.2 and 3.5 SD of the protein, either way, in both replicates (recomputed)
Summary of the method: (§1)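 Aliquots of K562 cells (2×10^6 cells/mL) treated with 10 μM compound for 30 min were heated for 3 min over 48°C-58°C. After pooling and extraction in PBS with 0.5% NP-40 at 4°C, soluble protein from a 21,000xg, 90 min spin was quantified by TMTpro 16plex LC-MS/MS with channel sums equalised. Thermal stability is expressed against control samples, from duplicates, as a log2 fold change.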

The chains behind the UniProt entries cited, without tags or fusion partners. Where a name states a change or a piece, a line headed by the entry shows the natural chain unless it says otherwise.
UniProt P51114, whole entry, looked up: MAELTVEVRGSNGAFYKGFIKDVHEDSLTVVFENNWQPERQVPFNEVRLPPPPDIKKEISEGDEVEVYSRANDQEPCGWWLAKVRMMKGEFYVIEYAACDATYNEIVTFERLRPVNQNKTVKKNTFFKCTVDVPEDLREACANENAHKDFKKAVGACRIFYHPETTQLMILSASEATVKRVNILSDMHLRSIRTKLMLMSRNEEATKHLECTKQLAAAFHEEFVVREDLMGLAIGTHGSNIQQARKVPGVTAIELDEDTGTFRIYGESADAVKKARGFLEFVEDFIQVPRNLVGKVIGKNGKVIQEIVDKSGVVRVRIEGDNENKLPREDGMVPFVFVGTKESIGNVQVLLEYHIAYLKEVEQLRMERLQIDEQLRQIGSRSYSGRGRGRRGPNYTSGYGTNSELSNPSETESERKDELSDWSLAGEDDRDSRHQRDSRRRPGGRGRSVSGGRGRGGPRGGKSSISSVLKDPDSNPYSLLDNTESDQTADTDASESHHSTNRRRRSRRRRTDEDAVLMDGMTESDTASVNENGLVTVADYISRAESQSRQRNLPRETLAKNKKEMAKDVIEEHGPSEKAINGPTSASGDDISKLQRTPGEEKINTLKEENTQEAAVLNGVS
UniProt Q9BQS8: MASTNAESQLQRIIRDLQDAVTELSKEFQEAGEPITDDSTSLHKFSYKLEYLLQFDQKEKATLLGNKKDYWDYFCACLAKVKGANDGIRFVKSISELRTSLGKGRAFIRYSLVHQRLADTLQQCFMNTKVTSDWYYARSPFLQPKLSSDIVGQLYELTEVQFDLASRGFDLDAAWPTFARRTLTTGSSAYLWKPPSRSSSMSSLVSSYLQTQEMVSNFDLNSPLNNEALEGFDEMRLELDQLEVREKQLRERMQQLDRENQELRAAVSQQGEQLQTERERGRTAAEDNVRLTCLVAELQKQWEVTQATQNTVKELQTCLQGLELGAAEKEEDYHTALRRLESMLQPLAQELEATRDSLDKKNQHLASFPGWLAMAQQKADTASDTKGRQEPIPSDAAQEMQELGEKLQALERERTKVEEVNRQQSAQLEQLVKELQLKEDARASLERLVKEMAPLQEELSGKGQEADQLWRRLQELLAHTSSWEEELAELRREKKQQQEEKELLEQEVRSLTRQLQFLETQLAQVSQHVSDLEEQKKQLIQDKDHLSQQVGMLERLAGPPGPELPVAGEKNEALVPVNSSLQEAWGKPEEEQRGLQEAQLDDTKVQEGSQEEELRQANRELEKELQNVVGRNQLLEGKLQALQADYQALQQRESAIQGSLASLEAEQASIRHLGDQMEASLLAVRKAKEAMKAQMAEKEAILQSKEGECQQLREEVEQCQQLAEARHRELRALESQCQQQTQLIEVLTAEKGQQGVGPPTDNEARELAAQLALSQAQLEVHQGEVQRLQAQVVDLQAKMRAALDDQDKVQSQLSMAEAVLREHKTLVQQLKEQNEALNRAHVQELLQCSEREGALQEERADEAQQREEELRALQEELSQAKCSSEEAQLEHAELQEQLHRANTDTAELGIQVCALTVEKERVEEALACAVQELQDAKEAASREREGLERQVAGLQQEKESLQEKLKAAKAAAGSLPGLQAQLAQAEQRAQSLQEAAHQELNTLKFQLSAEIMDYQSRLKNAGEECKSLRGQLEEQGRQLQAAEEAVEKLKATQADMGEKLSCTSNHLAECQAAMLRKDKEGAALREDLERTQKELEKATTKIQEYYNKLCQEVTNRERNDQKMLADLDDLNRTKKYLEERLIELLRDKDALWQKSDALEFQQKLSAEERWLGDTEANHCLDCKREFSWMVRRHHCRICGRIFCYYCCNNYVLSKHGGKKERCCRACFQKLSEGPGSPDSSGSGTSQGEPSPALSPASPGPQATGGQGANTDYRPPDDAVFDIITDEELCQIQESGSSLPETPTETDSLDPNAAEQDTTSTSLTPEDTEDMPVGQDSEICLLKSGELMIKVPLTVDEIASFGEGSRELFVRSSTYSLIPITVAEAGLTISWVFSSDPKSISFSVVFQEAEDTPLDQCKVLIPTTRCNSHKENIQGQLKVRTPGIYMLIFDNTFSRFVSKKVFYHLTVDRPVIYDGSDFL
UniProt Q86SF2: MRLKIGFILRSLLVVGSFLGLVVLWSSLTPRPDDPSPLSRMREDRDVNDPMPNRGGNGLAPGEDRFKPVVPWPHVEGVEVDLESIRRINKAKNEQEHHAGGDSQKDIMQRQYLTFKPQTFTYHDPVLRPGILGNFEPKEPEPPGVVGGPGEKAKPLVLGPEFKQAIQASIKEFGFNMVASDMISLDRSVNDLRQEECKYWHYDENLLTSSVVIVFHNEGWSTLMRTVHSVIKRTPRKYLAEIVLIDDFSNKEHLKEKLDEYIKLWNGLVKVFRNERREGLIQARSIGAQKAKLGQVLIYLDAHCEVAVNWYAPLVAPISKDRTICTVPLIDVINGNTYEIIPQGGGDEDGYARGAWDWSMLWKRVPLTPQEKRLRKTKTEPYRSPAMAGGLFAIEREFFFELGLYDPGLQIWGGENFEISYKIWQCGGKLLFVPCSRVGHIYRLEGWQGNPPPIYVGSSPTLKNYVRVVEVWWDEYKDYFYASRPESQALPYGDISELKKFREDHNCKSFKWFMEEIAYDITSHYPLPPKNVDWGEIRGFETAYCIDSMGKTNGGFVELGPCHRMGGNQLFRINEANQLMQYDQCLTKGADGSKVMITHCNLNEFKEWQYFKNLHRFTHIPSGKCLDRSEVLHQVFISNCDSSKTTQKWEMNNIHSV
UniProt P30047: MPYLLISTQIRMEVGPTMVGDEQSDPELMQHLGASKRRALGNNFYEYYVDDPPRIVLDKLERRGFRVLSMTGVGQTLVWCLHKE
UniProt Q01415: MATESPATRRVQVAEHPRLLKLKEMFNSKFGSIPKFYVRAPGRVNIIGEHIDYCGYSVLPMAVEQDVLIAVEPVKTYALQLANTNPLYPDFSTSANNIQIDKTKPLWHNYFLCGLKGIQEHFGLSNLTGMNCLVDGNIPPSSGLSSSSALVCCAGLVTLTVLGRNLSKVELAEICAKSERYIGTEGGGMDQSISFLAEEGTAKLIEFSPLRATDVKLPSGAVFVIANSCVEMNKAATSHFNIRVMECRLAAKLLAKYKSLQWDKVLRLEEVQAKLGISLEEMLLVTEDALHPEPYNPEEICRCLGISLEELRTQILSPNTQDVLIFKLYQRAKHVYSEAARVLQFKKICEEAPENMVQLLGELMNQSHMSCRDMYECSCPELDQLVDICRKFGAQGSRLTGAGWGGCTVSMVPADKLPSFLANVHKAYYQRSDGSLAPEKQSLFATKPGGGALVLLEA
UniProt P48506: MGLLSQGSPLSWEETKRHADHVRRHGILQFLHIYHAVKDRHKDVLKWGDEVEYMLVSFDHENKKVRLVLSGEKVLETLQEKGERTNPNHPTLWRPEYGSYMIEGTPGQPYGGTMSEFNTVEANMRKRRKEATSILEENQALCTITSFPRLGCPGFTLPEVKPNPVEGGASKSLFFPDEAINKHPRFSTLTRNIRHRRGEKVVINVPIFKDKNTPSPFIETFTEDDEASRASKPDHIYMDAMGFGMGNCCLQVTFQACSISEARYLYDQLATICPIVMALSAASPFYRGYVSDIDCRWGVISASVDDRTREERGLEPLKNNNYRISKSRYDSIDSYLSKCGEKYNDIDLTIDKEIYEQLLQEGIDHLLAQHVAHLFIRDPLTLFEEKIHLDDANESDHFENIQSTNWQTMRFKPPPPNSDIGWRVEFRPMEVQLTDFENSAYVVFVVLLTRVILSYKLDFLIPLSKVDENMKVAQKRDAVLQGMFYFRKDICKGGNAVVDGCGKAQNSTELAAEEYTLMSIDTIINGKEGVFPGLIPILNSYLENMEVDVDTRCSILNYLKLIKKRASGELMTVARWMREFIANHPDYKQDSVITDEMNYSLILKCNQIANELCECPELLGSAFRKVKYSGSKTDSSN
UniProt P57678: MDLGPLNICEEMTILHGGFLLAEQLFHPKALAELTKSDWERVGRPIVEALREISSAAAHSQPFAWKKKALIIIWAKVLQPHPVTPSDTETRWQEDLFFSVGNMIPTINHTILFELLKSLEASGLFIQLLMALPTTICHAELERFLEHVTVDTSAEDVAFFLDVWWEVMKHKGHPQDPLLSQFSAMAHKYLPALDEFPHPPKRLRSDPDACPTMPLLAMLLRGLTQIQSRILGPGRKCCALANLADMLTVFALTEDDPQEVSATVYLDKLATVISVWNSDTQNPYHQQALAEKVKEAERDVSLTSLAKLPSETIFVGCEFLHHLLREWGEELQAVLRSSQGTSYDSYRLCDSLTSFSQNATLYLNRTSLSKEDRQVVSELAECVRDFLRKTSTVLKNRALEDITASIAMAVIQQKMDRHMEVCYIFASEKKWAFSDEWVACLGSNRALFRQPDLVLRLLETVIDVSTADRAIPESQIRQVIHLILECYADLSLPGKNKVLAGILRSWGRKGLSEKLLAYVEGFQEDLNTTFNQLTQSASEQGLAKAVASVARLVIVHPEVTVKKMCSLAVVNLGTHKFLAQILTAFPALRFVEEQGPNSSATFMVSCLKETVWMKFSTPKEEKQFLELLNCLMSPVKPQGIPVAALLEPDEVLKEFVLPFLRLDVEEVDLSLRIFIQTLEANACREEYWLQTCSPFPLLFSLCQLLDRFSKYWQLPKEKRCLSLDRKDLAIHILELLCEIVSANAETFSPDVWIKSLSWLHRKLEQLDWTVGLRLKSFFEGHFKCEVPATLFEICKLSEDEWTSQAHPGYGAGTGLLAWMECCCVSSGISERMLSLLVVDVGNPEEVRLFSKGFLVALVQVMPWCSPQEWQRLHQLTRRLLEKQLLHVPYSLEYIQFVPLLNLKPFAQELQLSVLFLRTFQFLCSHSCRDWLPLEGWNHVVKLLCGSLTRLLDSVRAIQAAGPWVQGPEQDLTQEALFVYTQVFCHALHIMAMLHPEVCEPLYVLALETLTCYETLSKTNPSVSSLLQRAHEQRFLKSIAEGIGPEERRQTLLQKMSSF
UniProt Q9UET6: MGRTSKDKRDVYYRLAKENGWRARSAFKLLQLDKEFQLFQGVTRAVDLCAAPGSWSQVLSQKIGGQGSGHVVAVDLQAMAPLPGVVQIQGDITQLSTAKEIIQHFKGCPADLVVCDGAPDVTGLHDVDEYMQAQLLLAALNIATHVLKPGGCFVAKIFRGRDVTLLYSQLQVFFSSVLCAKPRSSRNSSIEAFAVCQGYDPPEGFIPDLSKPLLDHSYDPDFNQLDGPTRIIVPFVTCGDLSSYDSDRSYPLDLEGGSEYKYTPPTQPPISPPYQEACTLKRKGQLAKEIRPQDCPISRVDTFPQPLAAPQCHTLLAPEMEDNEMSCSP
UniProt Q14697: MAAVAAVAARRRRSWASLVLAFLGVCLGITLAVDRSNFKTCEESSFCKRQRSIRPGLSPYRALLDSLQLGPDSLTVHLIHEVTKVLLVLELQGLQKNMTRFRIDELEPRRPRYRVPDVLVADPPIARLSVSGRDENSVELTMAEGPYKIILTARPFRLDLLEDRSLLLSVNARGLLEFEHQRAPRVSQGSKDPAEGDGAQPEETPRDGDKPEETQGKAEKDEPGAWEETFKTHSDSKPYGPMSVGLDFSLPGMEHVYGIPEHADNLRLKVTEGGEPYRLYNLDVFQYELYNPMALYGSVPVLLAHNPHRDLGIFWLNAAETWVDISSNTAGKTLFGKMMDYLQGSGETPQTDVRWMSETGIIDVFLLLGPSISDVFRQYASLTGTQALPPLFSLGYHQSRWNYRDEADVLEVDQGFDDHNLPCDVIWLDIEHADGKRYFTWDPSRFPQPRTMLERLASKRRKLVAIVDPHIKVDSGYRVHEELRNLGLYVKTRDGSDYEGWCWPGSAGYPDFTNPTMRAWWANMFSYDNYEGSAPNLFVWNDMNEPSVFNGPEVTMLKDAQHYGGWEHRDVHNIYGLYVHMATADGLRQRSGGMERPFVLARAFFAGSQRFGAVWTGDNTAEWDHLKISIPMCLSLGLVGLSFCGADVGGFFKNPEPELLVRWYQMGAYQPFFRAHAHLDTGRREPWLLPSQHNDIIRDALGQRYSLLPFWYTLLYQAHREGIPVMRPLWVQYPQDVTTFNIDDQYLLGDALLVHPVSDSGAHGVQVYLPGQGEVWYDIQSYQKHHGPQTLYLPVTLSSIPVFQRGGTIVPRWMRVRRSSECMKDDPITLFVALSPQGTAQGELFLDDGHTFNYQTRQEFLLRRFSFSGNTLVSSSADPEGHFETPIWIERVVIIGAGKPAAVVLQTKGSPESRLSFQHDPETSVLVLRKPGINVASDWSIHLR
UniProt Q92820: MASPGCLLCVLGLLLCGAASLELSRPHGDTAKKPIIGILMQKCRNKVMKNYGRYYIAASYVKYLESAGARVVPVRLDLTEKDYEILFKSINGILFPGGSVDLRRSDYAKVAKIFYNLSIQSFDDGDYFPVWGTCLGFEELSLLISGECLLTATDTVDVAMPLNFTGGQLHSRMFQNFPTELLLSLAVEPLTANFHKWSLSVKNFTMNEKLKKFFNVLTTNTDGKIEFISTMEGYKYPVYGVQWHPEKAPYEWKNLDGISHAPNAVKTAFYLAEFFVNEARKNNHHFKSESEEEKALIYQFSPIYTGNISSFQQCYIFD

log2 fold change, inactive:
GCAT isoform 2 (UniProt O75600) 0.09
GAR1 (UniProt Q9NY12) -0.025
GATAD2A isoform 3 (UniProt Q86YP4) -0.039
FXR1 (UniProt P51114) -0.119
FYCO1 isoform 4 (UniProt Q9BQS8) -0.014
G3BP2 (UniProt Q9UN86) 0.031
GALNT7 (UniProt Q86SF2) 0.001
GAN (UniProt Q9H2C0) 0.018
FRG1 (UniProt Q14331) -0.02
GGA3 (UniProt Q9NZ52) -0.082
GCHFR (UniProt P30047) -0.008
FUS (UniProt P35637) 0.014
GALK2 (UniProt Q01415) 0.039
GAMT (UniProt Q14353) 0.052
FTH1 (UniProt P02794) 0.097
GCLC (UniProt P48506) -0.015
FUBP1 (UniProt Q96AE4) 0.085
GAGE2A (UniProt Q6NT46) 0.008
FXR2 (UniProt P51116) 0.019
G3BP1 (UniProt Q13283) 0
GEMIN4 (UniProt P57678) -0.01
GGCT (UniProt O75223) 0.028
FTSJ1 (UniProt Q9UET6) -0.027
GALNT5 (UniProt Q7Z7M9) 0.036
GANAB isoform 2 (UniProt Q14697) -0.004
GGA1 isoform 6 (UniProt Q9UJY5) -0.012
GGH (UniProt Q92820) 0.021
GALE (UniProt Q14376) 0.072
GALNS (UniProt P34059) 0.006
GHITM (UniProt Q9H3K2) 0.01
G6PD isoform 2 (UniProt P11413) 0.073
GALM (UniProt Q96C23) -0.011
GFM1 (UniProt Q96RP9) 0.01

compound: Cc1nc(Nc2n[nH]c3c2CN(C(=O)N[C@H](CN(C)C)c2ccccc2)C3(C)C)c2sccc2n1; experiment: as above
Summary of the method: as §1

log2 fold change, inactive:
GCAT isoform 2 (UniProt O75600) 0.008
GAR1 (UniProt Q9NY12) 0.073
GATAD2A isoform 3 (UniProt Q86YP4) -0.13
FXR1 (UniProt P51114) -0.177
FYCO1 isoform 4 (UniProt Q9BQS8) -0.13
G3BP2 (UniProt Q9UN86) 0.049
GALNT7 (UniProt Q86SF2) -0.03
GAN (UniProt Q9H2C0) -0.04
FRG1 (UniProt Q14331) -0.015
GGA3 (UniProt Q9NZ52) -0.022
GCHFR (UniProt P30047) 0.054
FUS (UniProt P35637) 0.066
GALK2 (UniProt Q01415) -0.005
GAMT (UniProt Q14353) -0.086
FTH1 (UniProt P02794) -0.007
GCLC (UniProt P48506) -0.013
FUBP1 (UniProt Q96AE4) 0.01
GAGE2A (UniProt Q6NT46) -0.004
FXR2 (UniProt P51116) -0.266
G3BP1 (UniProt Q13283) 0.072
GEMIN4 (UniProt P57678) 0.195
GGCT (UniProt O75223) 0.013
FTSJ1 (UniProt Q9UET6) 0.064
GALNT5 (UniProt Q7Z7M9) -0.083
GANAB isoform 2 (UniProt Q14697) 0.024
GGA1 isoform 6 (UniProt Q9UJY5) -0.017
GGH (UniProt Q92820) 0.029
GALE (UniProt Q14376) -0.025
GALNS (UniProt P34059) -0.012
GHITM (UniProt Q9H3K2) 0.023
G6PD isoform 2 (UniProt P11413) -0.004
GALM (UniProt Q96C23) -0.001
GFM1 (UniProt Q96RP9) -0.047

compound: Cc1nc(Nc2ncc(C(=O)Nc3c(C)cccc3Cl)s2)cc(N2CCN(CCO)CC2)n1 [dasatinib]; experiment: as above
Summary of the method: as §1

log2 fold change, inactive:
GCAT isoform 2 (UniProt O75600) -0.032
GAR1 (UniProt Q9NY12) 0.196
GATAD2A isoform 3 (UniProt Q86YP4) -0.079
FXR1 (UniProt P51114) 0.036
FYCO1 isoform 4 (UniProt Q9BQS8) -0.249
G3BP2 (UniProt Q9UN86) 0.036
GALNT7 (UniProt Q86SF2) -0.084
GAN (UniProt Q9H2C0) -0.024
FRG1 (UniProt Q14331) -0.017
GGA3 (UniProt Q9NZ52) -0.029
GCHFR (UniProt P30047) 0.05
FUS (UniProt P35637) 0.11
GALK2 (UniProt Q01415) 0.013
GAMT (UniProt Q14353) 0.046
FTH1 (UniProt P02794) -0.094
GCLC (UniProt P48506) -0.051
FUBP1 (UniProt Q96AE4) -0.054
GAGE2A (UniProt Q6NT46) 0.104
FXR2 (UniProt P51116) 0.083
G3BP1 (UniProt Q13283) 0.026
GEMIN4 (UniProt P57678) 0.05
GGCT (UniProt O75223) -0.017
FTSJ1 (UniProt Q9UET6) -0.083
GALNT12 (UniProt Q8IXK2) -0.182
GALNT5 (UniProt Q7Z7M9) 0.057
GANAB isoform 2 (UniProt Q14697) 0
GGA1 isoform 6 (UniProt Q9UJY5) 0.06
GGH (UniProt Q92820) 0.021
GALE (UniProt Q14376) 0.004
GALNS (UniProt P34059) 0.061
GHITM (UniProt Q9H3K2) 0.024
G6PD isoform 2 (UniProt P11413) -0.066
GALM (UniProt Q96C23) 0.004
GFM1 (UniProt Q96RP9) -0.165
